Like-named read-outs stand apart in the source and are kept apart here. These are yes or no findings as the source states them, for the method shown. Binding seen in cells or lysates may run through a third protein. A yes stands for co-enrichment or nearness to the bait. Other partners may have been found.
What was measured:
Assay in all cases: affinity purification with mass spectrometry; HCT116 cells transiently transfected with amino or carboxyl terminally FLAG/HA-tagged HPV8 E6; common contaminants subtracted
[1] = target: N-terminally FLAG/HA-tagged HPV8 E6 (HPV8 (human papillomavirus type 8)) (UniProt P06428)
[2] = target: carboxyl terminally FLAG/HA epitope-tagged HPV8 E6 (HPV8 (human papillomavirus type 8)) (UniProt P06428)
[3] = target: amino or carboxyl terminally FLAG/HA epitope-tagged HPV8 E6 (AP/MS bait, end of the tag not told for the hit) (HPV8 (human papillomavirus type 8)) (UniProt P06428)
[4] = target: amino or carboxyl terminally FLAG/HA epitope-tagged HPV8 E6 (AP/MS bait, end of the tag not told for the hit) (HPV8 (human papillomavirus type 8)) (UniProt P06428); remark: listed apart in the source

The chains behind the UniProt entries cited, without tags or fusion partners.
UniProt P06428: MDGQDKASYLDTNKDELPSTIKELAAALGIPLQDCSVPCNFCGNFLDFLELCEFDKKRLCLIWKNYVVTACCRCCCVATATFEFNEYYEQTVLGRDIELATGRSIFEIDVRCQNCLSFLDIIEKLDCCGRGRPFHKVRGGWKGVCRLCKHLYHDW
UniProt Q86UU0: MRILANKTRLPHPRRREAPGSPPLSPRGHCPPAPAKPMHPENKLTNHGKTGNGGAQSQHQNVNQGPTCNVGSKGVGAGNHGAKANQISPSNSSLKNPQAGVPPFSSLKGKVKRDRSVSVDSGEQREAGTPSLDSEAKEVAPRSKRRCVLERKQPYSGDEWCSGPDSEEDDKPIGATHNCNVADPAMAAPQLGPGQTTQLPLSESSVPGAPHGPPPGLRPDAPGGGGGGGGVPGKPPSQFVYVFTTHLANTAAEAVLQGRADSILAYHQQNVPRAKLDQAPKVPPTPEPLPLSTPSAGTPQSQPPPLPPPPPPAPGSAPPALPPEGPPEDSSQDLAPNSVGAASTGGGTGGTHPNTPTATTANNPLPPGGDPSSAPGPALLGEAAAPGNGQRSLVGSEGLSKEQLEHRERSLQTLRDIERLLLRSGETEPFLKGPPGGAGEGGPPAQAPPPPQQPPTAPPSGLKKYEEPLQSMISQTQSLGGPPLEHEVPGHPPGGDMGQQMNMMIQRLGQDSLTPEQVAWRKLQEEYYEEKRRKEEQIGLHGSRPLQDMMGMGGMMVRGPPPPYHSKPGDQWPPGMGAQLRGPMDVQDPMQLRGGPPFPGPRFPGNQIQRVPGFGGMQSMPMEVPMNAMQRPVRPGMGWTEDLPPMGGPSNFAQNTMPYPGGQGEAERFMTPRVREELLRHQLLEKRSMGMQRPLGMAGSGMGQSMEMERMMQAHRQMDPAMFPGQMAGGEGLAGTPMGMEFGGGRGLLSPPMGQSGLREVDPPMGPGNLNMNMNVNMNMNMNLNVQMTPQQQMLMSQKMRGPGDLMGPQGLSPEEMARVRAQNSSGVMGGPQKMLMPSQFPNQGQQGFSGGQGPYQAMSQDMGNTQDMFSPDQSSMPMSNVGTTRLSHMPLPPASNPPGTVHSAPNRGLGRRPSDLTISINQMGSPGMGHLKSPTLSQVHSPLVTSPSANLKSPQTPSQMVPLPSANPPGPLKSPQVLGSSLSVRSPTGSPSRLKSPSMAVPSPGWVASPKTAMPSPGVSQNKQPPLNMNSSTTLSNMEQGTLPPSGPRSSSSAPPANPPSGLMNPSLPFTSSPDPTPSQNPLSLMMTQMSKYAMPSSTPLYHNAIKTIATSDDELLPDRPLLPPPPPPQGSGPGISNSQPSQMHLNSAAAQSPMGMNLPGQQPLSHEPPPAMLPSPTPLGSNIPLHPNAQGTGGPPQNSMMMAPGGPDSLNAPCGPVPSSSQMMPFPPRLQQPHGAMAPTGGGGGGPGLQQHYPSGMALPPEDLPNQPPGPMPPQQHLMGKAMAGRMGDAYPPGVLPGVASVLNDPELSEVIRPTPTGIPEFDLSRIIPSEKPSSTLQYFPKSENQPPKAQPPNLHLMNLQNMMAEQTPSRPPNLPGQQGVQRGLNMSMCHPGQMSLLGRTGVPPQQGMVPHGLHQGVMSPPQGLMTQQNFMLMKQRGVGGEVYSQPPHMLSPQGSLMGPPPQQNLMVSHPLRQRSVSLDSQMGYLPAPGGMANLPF
UniProt Q92793: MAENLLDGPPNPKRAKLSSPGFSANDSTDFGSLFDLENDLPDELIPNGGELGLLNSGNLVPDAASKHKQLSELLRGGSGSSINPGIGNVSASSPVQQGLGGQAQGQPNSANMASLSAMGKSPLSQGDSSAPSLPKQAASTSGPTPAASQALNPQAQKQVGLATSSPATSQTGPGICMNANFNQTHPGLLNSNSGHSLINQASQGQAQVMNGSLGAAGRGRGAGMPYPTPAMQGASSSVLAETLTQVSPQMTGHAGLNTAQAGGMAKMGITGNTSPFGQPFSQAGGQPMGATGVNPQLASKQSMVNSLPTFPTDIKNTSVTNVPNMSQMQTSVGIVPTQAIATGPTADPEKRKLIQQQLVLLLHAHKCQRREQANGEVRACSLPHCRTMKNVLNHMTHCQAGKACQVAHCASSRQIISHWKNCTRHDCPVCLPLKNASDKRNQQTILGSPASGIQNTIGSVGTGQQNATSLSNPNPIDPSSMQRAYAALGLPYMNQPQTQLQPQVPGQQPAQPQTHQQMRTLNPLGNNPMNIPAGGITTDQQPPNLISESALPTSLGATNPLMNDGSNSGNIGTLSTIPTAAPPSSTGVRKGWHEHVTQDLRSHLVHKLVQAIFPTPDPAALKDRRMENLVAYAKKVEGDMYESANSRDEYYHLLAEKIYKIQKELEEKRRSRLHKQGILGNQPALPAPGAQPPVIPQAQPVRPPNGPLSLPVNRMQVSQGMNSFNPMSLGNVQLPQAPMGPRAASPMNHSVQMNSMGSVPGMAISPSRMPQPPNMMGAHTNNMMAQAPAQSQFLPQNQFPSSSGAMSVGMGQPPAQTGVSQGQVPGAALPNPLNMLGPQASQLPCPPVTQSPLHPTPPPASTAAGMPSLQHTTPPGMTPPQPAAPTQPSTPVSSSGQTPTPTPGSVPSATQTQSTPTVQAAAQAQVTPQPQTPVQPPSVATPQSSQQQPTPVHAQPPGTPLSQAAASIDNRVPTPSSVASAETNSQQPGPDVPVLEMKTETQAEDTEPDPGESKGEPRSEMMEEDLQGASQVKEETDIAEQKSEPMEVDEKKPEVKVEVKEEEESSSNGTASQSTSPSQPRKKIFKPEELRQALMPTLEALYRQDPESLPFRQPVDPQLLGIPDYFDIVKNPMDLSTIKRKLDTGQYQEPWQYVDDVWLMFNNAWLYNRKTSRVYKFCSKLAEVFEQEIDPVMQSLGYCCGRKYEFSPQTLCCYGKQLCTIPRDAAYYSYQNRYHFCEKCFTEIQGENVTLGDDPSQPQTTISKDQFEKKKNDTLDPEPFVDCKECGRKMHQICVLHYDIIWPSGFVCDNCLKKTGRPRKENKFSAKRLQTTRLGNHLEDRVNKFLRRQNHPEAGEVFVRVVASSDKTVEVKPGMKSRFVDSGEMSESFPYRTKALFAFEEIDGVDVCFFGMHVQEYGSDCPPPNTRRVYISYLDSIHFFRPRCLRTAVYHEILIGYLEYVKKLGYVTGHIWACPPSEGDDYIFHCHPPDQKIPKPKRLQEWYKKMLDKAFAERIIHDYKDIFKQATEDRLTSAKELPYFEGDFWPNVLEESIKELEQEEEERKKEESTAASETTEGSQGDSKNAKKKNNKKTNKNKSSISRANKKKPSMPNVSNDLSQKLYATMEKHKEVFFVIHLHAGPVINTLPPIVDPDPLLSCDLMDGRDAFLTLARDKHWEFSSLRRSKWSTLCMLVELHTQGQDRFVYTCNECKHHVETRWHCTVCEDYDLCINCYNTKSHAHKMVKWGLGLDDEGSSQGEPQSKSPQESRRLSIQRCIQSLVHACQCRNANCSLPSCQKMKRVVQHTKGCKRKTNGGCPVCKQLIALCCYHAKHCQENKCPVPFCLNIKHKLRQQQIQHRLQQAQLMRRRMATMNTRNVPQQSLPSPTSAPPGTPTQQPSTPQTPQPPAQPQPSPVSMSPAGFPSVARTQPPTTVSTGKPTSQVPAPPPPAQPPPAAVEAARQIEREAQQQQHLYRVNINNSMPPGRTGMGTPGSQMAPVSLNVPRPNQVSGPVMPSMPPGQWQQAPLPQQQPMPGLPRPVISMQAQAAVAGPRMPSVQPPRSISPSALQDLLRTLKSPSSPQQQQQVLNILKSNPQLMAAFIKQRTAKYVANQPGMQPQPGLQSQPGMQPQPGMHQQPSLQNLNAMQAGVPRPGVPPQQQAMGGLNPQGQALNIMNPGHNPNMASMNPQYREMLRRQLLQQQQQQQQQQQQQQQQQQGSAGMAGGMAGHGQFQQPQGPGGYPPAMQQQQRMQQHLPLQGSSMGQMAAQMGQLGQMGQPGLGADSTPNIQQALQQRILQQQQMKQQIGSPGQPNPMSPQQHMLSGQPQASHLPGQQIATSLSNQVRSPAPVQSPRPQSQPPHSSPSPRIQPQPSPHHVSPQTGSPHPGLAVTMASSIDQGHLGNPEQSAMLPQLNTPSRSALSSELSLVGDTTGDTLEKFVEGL

Molecule: B-cell CLL/lymphoma 9-like (BCL9L) (from UniProt Q86UU0 1-1499)
- binding [1]: binds
- binding [2]: binds

Molecule: cAMP response element binding protein (CREBBP) (from UniProt Q92793 1-2442)
- binding [3]: binds

B1: BCL9 (protein, UniProt O00512 1-1426)
chain: MHSSNPKVRSSPSGNTQSSPKSKQEVMVRPPTVMSPSGNPQLDSKFSNQGKQGGSASQSQPSPCDSKSGGHTPKALPGPGGSMGLKNGAGNGAKGKGKRERSISADSFDQRDPGTPNDDSDIKECNSADHIKSQDSQHTPHSMTPSNATAPRSSTPSHGQTTATEPTPAQKTPAKVVYVFSTEMANKAAEAVLKGQVETIVSFHIQNISNNKTERSTAPLNTQISALRNDPKPLPQQPPAPANQDQNSSQNTRLQPTPPIPAPAPKPAAPPRPLDRESPGVENKLIPSVGSPASSTPLPPDGTGPNSTPNNRAVTPVSQGSNSSSADPKAPPPPPVSSGEPPTLGENPDGLSQEQLEHRERSLQTLRDIQRMLFPDEKEFTGAQSGGPQQNPGVLDGPQKKPEGPIQAMMAQSQSLGKGPGPRTDVGAPFGPQGHRDVPFSPDEMVPPSMNSQSGTIGPDHLDHMTPEQIAWLKLQQEFYEEKRRKQEQVVVQQCSLQDMMVHQHGPRGVVRGPPPPYQMTPSEGWAPGGTEPFSDGINMPHSLPPRGMAPHPNMPGSQMRLPGFAGMINSEMEGPNVPNPASRPGLSGVSWPDDVPKIPDGRNFPPGQGIFSGPGRGERFPNPQGLSEEMFQQQLAEKQLGLPPGMAMEGIRPSMEMNRMIPGSQRHMEPGNNPIFPRIPVEGPLSPSRGDFPKGIPPQMGPGRELEFGMVPSGMKGDVNLNVNMGSNSQMIPQKMREAGAGPEEMLKLRPGGSDMLPAQQKMVPLPFGEHPQQEYGMGPRPFLPMSQGPGSNSGLRNLREPIGPDQRTNSRLSHMPPLPLNPSSNPTSLNTAPPVQRGLGRKPLDISVAGSQVHSPGINPLKSPTMHQVQSPMLGSPSGNLKSPQTPSQLAGMLAGPAAAASIKSPPVLGSAAASPVHLKSPSLPAPSPGWTSSPKPPLQSPGIPPNHKAPLTMASPAMLGNVESGGPPPPTASQPASVNIPGSLPSSTPYTMPPEPTLSQNPLSIMMSRMSKFAMPSSTPLYHDAIKTVASSDDDSPPARSPNLPSMNNMPGMGINTQNPRISGPNPVVPMPTLSPMGMTQPLSHSNQMPSPNAVGPNIPPHGVPMGPGLMSHNPIMGHGSQEPPMVPQGRMGFPQGFPPVQSPPQQVPFPHNGPSGGQGSFPGGMGFPGEGPLGRPSNLPQSSADAALCKPGGPGGPDSFTVLGNSMPSVFTDPDLQEVIRPGATGIPEFDLSRIIPSEKPSQTLQYFPRGEVPGRKQPQGPGPGFSHMQGMMGEQAPRMGLALPGMGGPGPVGTPDIPLGTAPSMPGHNPMRPPAFLQQGMMGPHHRMMSPAQSTMPGQPTLMSNPAAAVGMIPGKDRGPAGLYTHPGPVGSPGMMMSMQGMMGPQQNIMIPPQMRPRGMAADVGMGGFSQGPGNPGNMMF
- binding [4]: binds

B2: PYGO2 (protein, UniProt Q9BRQ0 1-406)
chain: MAASAPPPPDKLEGGGGPAPPPAPPSTGRKQGKAGLQMKSPEKKRRKSNTQGPAYSHLTEFAPPPTPMVDHLVASNPFEDDFGAPKVGVAAPPFLGSPVPFGGFRVQGGMAGQVPPGYSTGGGGGPQPLRRQPPPFPPNPMGPAFNMPPQGPGYPPPGNMNFPSQPFNQPLGQNFSPPSGQMMPGPVGGFGPMISPTMGQPPRAELGPPSLSQRFAQPGAPFGPSPLQRPGQGLPSLPPNTSPFPGPDPGFPGPGGEDGGKPLNPPASTAFPQEPHSGSPAAAVNGNQPSFPPNSSGRGGGTPDANSLAPPGKAGGGSGPQPPPGLVYPCGACRSEVNDDQDAILCEASCQKWFHRECTGMTESAYGLLTTEASAVWACDLCLKTKEIQSVYIREGMGQLVAANDG
- binding [4]: binds
